From PubChem BioAssay AID1688 (National Center for Advancing Translational Sciences (NCATS), 2009)
In all, about 220,000 compounds went through this assay and about 2,400 (1.1%) were called active. Inconclusive results, whose numbers are uncertain, are shown with a selection of clear calls. Calls come from the whole dose curve; as a rule, active = well fitted inhibition curve with a large enough effect; inconclusive = small, poorly fitted or top-dose-only effect, or effect the other way; inactive = no such curve, though single readings can be large or run the other way. A potency beside an inconclusive call is a rough fit, not a confirmed value.

Test: qHTS Multiplex Assay to Identify Dual Action Probes in a Cell Model of Huntington: Aggregate Formation (GFP); note: nearly all actives have a fitted effect of over 60% in size
Conditions: PC12 HttQ103-GFP aggregates, Acumen cytometry, 40 h; activity change, negative = inhibition: at 46.1 µM (top of the series) unless noted
How it was run: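 PC12 cells with ecdysone-inducible HTT exon1 Q103-GFP, induced by 100 nM tebufenozide, given compounds in a concentration series. GFP aggregates (1–25 um, 6 SD above background) counted in lysates by laser-scanning cytometry, 488 nm excitation.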
% is set by controls: 0 for no effect and ±100 for the full control effect; potency is the fitted concentration of half-maximal effect.

Row | SMILES | Potency | activity change, negative = inhibition
1 | CCC(NC(=O)Cn1cnc2c(=O)n(C)c(=O)n(C)c21)c1ccccc1 (centres undefined) | inconclusive: 35.5 µM [inhibitor, single point] | 
2 | COc1cccc(Nc2ncnc3nc[nH]c23)c1 | inconclusive: 10 µM [inhibitor, partial curve] | 
3 | COc1ccc(C(=O)CC(Nc2ccc([N+](=O)[O-])cc2)c2ccc(Cl)cc2)cc1 (centres undefined) | inconclusive: 20 µM [inhibitor, partial curve] | 
4 | COc1ccccc1NS(=O)(=O)c1cccc(C(=O)NN=C2CCCC2)c1 | inconclusive: 35.5 µM [inhibitor, single point] | 
5 | c1ccc(-c2nnnc3ccccc23)cc1 | inconclusive: 10 µM [activator, single point] | 
6 | Cc1ccccc1C(=O)NCC(=O)NNC(=S)NC(=O)c1ccccc1C |  | inactive: -7.29%
7 | Oc1c(N=NC(=S)Nc2ccccc2F)c2ccccc2n1Cc1ccc(F)cc1 | inconclusive: 1.78 µM [inhibitor, full curve, poor fit] | 
8 | CCOC(=O)C1CCN(c2c(NCc3ccc(C(=O)NCCC(C)C)cc3)c(=O)c2=O)CC1 |  | inactive: 5.11%
9 | CCCN(CCC)CCCNC(=O)c1cn(CC)c2ccc(S(=O)(=O)N3CCc4ccccc4C3)cc2c1=O | inconclusive: 35.5 µM [inhibitor, single point] | 
10 | CCC(=O)Nc1ccc(-c2csc(C)n2)cc1 |  | inactive: -6%
11 | COC(=O)[C@H](Cc1ccccc1)NC(=O)N(C)Cc1ccccc1 |  | inactive: 22% [at 9.22 µM]
12 | Cc1cc(N/N=C/c2cccc(Cl)c2)nc(NCc2ccccc2)n1 | inconclusive: 10 µM [inhibitor, partial curve] | 
13 | Cc1ccnc(NC(=O)c2ccc3c(c2)C(=O)N(CC2CCCO2)C3=O)c1 (centres undefined) |  | inactive: 24.7%
14 | Cc1ccc(C(=O)N2CCCC(c3nc4c(nnn4Cc4ccccc4)c(=O)[nH]3)C2)cc1 (centres undefined) | inconclusive: 1.58 µM [activator, full curve] | 
15 | O=C(Nc1ccccc1)Nc1nnc(-c2ccccc2)o1 | inconclusive: 3.55 µM [inhibitor, single point] | 
16 | CC1C/C(=C\c2cccnc2)C(=O)/C(=C/c2cccnc2)C1 (centres undefined) | active: 3.55 µM | 
17 | Cc1cccc(NC(=O)c2ccccc2[N+](=O)[O-])n1 |  | inactive: -1.28%
18 | O=C(Cc1cccc2ccccc12)NC(NC(=S)Nc1ccccc1Cl)C(Cl)(Cl)Cl (centres undefined) | inconclusive: 11.2 µM [inhibitor, partial curve] | 
19 | c1ccc(Nc2nc(NCC3CCCO3)c3ccccc3n2)cc1 (centres undefined) | inconclusive: 14.1 µM [inhibitor, single point] | 
20 | CC(C)Oc1cccc(C(=O)Nc2ccc(N3CCN(S(C)(=O)=O)CC3)cc2)c1 | inconclusive: 12.6 µM [activator, partial curve] | 
21 | Cc1ccc(S(=O)(=O)n2nc(OC(=O)c3c(-c4ccccc4Cl)noc3C)cc2N)cc1 | inconclusive: 35.5 µM [activator, partial curve] | 
22 | CCOc1ccc(Nc2nc(Cc3nnc(SCC(=O)c4ccc(C)c(C)c4)o3)cs2)cc1 | active: 10 µM | 
23 | COc1cc(Cl)ccc1NC(=S)N(CCCN1CCOCC1)Cc1cn(C)c2ccccc12 | inconclusive: 1.78 µM [inhibitor, partial curve] | 

Looked up one by one from the entries so far, 5 records:
Row | SMILES | Potency | activity change, negative = inhibition
9 | CCCN(CCC)CCCNC(=O)c1cn(CC)c2ccc(S(=O)(=O)N3CCc4ccccc4C3)cc2c1=O | inconclusive: 35.5 µM [inhibitor, single point] | 
1 | CCC(NC(=O)Cn1cnc2c(=O)n(C)c(=O)n(C)c21)c1ccccc1 (centres undefined) | inconclusive: 35.5 µM [inhibitor, single point] | 
15 | O=C(Nc1ccccc1)Nc1nnc(-c2ccccc2)o1 | inconclusive: 3.55 µM [inhibitor, single point] | 
20 | CC(C)Oc1cccc(C(=O)Nc2ccc(N3CCN(S(C)(=O)=O)CC3)cc2)c1 | inconclusive: 12.6 µM [activator, partial curve] | 
23 | COc1cc(Cl)ccc1NC(=S)N(CCCN1CCOCC1)Cc1cn(C)c2ccccc12 | inconclusive: 1.78 µM [inhibitor, partial curve] | 

Carrying on:

Row | SMILES | Potency | activity change, negative = inhibition
24 | COC(=O)C(NS(=O)(=O)c1ccc(C)cc1)c1ccccc1 (centres undefined) | inconclusive: 5.62 µM [activator, single point] | 
25 | Cc1cccc(-n2ncc3c(NCc4cccs4)ncnc32)c1 | active: 11.2 µM | 
26 | O=C(O)c1cc(NN=Nc2cccc([N+](=O)[O-])c2)cc([N+](=O)[O-])c1 |  | inactive: -3.76% [at 9.22 µM]
27 | COc1cccc(Nc2nnc(SCC(=O)Nc3sccc3C(N)=O)s2)c1 |  | inactive: 8.13% [at 9.22 µM]
28 | COc1ccc(C(=O)NCC(=O)N=Nc2c(O)n(Cc3ccccc3)c3ccccc23)cc1OC | inconclusive: 15.8 µM [activator, partial curve] | 
29 | Cc1sc2nc(-c3ccccn3)[nH]c(=O)c2c1-c1ccccc1 | inconclusive: 1.58 µM [activator, full curve] | 
30 | NC(=O)N/N=C/c1ccccc1OC(=O)c1ccccc1Br |  | inactive: -13.6% [at 9.22 µM]
31 | O=C(O)/C=C/c1ccccc1Oc1ccccc1 | inconclusive: 7.94 µM [inhibitor, partial curve] | 
32 | CC1=[N+](C)N(c2ccccc2)C(=O)C1N=C/C=C/c1ccccc1 (centres undefined) |  | inactive: -8.28% [at 9.22 µM]
33 | COc1ccc(-c2ccc(C#N)c(SCC(=O)Nc3sc4c(c3C#N)CCC4)n2)cc1OC |  | inactive: 3.23%
34 | COc1ccc(C(=O)N/N=C/c2ccc3cccc(OCc4ccccc4)c3n2)cc1 | inconclusive: 35.5 µM [inhibitor, single point] | 
35 | Cc1cc(/C=C2\SC(=S)NC2=O)c(C)[nH]1 | inconclusive: 35.5 µM [inhibitor, single point] | 
36 | CC1(C)NC(=O)N(CC(O)COC2CCCCC2)C1=O (centres undefined) |  | inactive: -0.0118%
37 | CC1=CC(C)(C)Nc2ccc(C)cc21 |  | inactive: 2.35%
38 | COc1ccc(NS(=O)(=O)c2ccc(NC(C)=O)cc2)cc1OC | inconclusive: 4.47 µM [inhibitor, partial curve] | 
39 | Cc1ccc(SC/C(O)=C(\C#N)c2nc3ccccc3s2)cc1 | inconclusive: 35.5 µM [inhibitor, single point] | 
40 | O=S(=O)(Nc1nc2c(s1)CCCC2)c1ccc(F)cc1 | inconclusive: 0.562 µM [inhibitor, full curve, poor fit] | 
41 | O=C(CN1C(=O)/C(=C\c2cccc(F)c2)Oc2ccccc21)N1CCN(c2ccccn2)CC1 | inconclusive: 5.62 µM [inhibitor, single point] | 
42 | O=C(c1ccncc1)N(c1ccc2oc3c(c2c1)CCCC3)S(=O)(=O)c1cccc([N+](=O)[O-])c1 | inconclusive: 28.2 µM [inhibitor, partial curve, poor fit] | 
43 | Cn1cnc([N+](=O)[O-])c1Oc1ccccc1 | inconclusive: 31.6 µM [inhibitor, single point] | 
44 | CN(C)CCCNC(=O)CC(c1ccc(F)cc1)c1ccco1 (centres undefined) | inconclusive: 0.562 µM [activator, full curve, poor fit] | 
45 | CC(=O)c1sc(NC(=O)c2cc(-c3ccccc3)nn2-c2ccccc2)nc1C | inconclusive: 11.2 µM [inhibitor, single point] | 
46 | CCOC(=O)c1nn(-c2ccc(Cl)cc2)c2nc(Nc3ccccc3)cc(=O)n12 | inconclusive: 0.562 µM [inhibitor, partial curve, poor fit] | 

Row | SMILES | Potency | activity change, negative = inhibition
47 | COc1ccc(CCNC(=O)COc2cc(=O)n(C)c3ccccc23)cc1OC | inconclusive: 35.5 µM [activator, single point] | 
48 | Cn1c(=O)c2c(nc(NCc3ccc4c(c3)OCO4)n2Cc2ccccc2)n(C)c1=O | inconclusive: 20 µM [inhibitor, single point] | 
49 | O=C(NC(c1ccc(Cl)cc1)c1c(O)ccc2ccccc12)c1ccccc1 (centres undefined) | inconclusive: 35.5 µM [inhibitor, single point] | 
50 | Cc1c(C(=O)OC2CCCC2)[nH]c2c1C(=O)CC(c1ccco1)C2 (centres undefined) |  | inactive: -12.2%
51 | CC(C)CC(c1nnnn1C1CCCCC1)N1CCN(c2ncccn2)CC1 (centres undefined) |  | inactive: 30%
52 | CSc1ccc2c(c1)C(N1CCN(C)CC1)Cc1ccccc1S2 (centres undefined) | inconclusive: 35.5 µM [inhibitor, single point] | 
53 | COc1ccc(/C=N/NC(=O)c2ccccc2OCc2ccccc2)c(OC)c1 | inconclusive: 35.5 µM [inhibitor, single point] | 
54 | O=C(Nc1ccc(OC(F)F)c(Cl)c1)Nc1ccc2c(c1)OCO2 | active: 11.2 µM | 
55 | COC(=O)C(NC(=O)CCc1c(C)nc2ncnn2c1C)C(C)C (centres undefined) | inconclusive: 1.41 µM [activator, partial curve] | 
56 | COc1ccc(C(=O)C2CCCN(Cc3cn(C)nc3-c3ccccc3)C2)cc1F (centres undefined) |  | inactive: 1.71% [at 9.22 µM]
57 | CN(C)c1ccc(C2NCC(CCl)O2)cc1 (centres undefined) |  | inactive: -1.91%
58 | Cc1ccc(C(C(=O)NC2CCCCC2)N(C(=O)Cc2c[nH]c3ccccc23)c2ccccc2)o1 (centres undefined) |  | inactive: 9.3%
59 | Cc1ccc(OCC(=O)NN2C(=O)c3ccccc3C2=O)cc1 |  | inactive: 26.2%
60 | CC(=O)C1=NN(c2ccccc2)C(c2cccs2)N1c1ccc(N(C)C)cc1 (centres undefined) | inconclusive: 1.78 µM [inhibitor, partial curve] | 
61 | CCCn1c(CC)nc([N+](=O)[O-])c1Sc1ccc(C)cc1 | inconclusive: 3.55 µM [activator, partial curve] | 
62 | Cc1c(C(=O)N2CCCCC2)sc(NC(=O)C(C)C)c1C#N |  | inactive: 7.51%
63 | O=C(CS(=O)(=O)c1ccc2ccccc2c1)N1CCCCCC1 | inconclusive: 31.6 µM [inhibitor, partial curve, poor fit] | 
64 | COc1ccc(NC(=O)c2ccccc2NC(=O)CSc2ccc(Cl)cc2)cc1 | inconclusive: 6.31 µM [inhibitor, single point] | 
65 | CO/N=C/c1ccc(N2CCN(C(=O)c3ccc(F)cc3)CC2)c([N+](=O)[O-])c1 | active: 12.6 µM | 
66 | COC(=O)c1ccc(C(=O)OC)c(NC(=O)COC(=O)c2ccccc2OC)c1 | inconclusive: 6.31 µM [inhibitor, single point] | 
67 | COc1ccc(/C=C2/C(=O)OCc3cc(OC)c(OC)cc32)c(OC)c1 | inconclusive: 10 µM [activator, partial curve] | 
68 | COc1cccc(CSc2nc3sc(C)c(C)c3c(=O)n2Cc2ccco2)c1 | inconclusive: 7.94 µM [inhibitor, partial curve] | 
69 | Cc1ccc(NC2Sc3ccccc3NC2=O)cc1 (centres undefined) | inconclusive: 10 µM [activator, single point] | 
